Measurements from PubChem BioAssay AID248 (DTP/NCI, 2004).
The list shows only some results of the screen, not a fair sample: it gathers some chemical classes. Not every dose and run of a compound is shown. T/C gives the treated animals as a percentage of the vehicle group. For survival time, the PubChem record calls one and a half times the control and up active, and a quarter to a half above the control has no call in these data; cut-offs in other NCI protocols can differ. Some entries show no survivor count and are marked so; the dose need not have been tolerated. Schedule codes are those of the source, taken here to give the interval after Q, in days (D) or hours (H), and the number of doses after X. Some entries hold several experiments; the values are given in rising order. Some schedules carry Z or #; the key to these is not given.

Tested on: L1210 leukemia ip in BDF1 mice, survival T/C
Assay: NCI In Vivo Anticancer Drug Screen. Data for tumor model L1210 Leukemia (intraperitoneal) in B6D2F1 (BDF1) mice
Details: T/C endpoint: mean survival time, vehicle: saline, higher T/C = longer survival

O[C@@H](CNCCCl)[C@@H](O)CNCCCl
T/C (dose: 0.25 mg/kg/injection, schedule: Q01DX009 (ip)): 111 % of control [survivor count not shown]
T/C (dose: 0.25 mg/kg/injection, schedule: Q01DX Z (ip)): 114 % of control [survivor count not shown]
T/C (dose: 0.3 mg/kg/injection, schedule: Q01DX009 (ip)): 114 % of control [survivor count not shown]
T/C (dose: 0.5 mg/kg/injection, schedule: Q01DX009 (ip)): 151 % of control [survivor count not shown]
T/C (dose: 0.5 mg/kg/injection, schedule: Q01DX Z (ip)): 104 % of control [survivor count not shown]
T/C (dose: 0.6 mg/kg/injection, schedule: Q01DX009 (ip)): 109 % of control [survivor count not shown]
T/C (dose: 1.0 mg/kg/injection, schedule: Q01DX001 (ip)): 110 % of control [survivor count not shown]
T/C (dose: 1.0 mg/kg/injection, schedule: Q01DX009 (ip)): 119 [survivor count not shown] and 170 % of control [survivor count not shown]
T/C (dose: 1.0 mg/kg/injection, schedule: Q01DX Z (ip)): 132 % of control [survivor count not shown]
T/C (dose: 1.25 mg/kg/injection, schedule: Q01DX009 (ip)): 123 % of control [survivor count not shown]
T/C (dose: 1.25 mg/kg/injection, schedule: Q01DX009 (oral)): 123 % of control [survivor count not shown]
T/C (dose: 1.25 mg/kg/injection, schedule: Q01DX Z (ip)): 129 % of control [survivor count not shown]
T/C (dose: 2.0 mg/kg/injection, schedule: Q01DX009 (ip)): 131 [survivor count not shown] and 239 % of control [survivor count not shown]
T/C (dose: 2.0 mg/kg/injection, schedule: Q01DX Z (ip)): 126 [survivor count not shown] and 130 % of control [survivor count not shown]
T/C (dose: 2.5 mg/kg/injection, schedule: Q01DX001 (ip)): 105 % of control [survivor count not shown]
T/C (dose: 2.5 mg/kg/injection, schedule: Q01DX001 (oral)): 105 % of control [survivor count not shown]
T/C (dose: 2.5 mg/kg/injection, schedule: Q01DX009 (ip)): 132 % of control [survivor count not shown]
T/C (dose: 2.5 mg/kg/injection, schedule: Q01DX009 (oral)): 124 % of control [survivor count not shown]
T/C (dose: 2.5 mg/kg/injection, schedule: Q01DX Z (ip)): 150 % of control [survivor count not shown]
T/C (dose: 4.0 mg/kg/injection, schedule: Q01DX009 (ip)): 134 [survivor count not shown] and 148 % of control [survivor count not shown]
T/C (dose: 4.0 mg/kg/injection, schedule: Q01DX015 (ip)): 133 % of control [survivor count not shown]
T/C (dose: 4.0 mg/kg/injection, schedule: Q01DX Z (ip)): 145 % of control [survivor count not shown]
T/C (dose: 5.0 mg/kg/injection, schedule: Q01DX001 (ip)): 121 [survivor count not shown], 126 [survivor count not shown], 127 % of control [survivor count not shown]
T/C (dose: 5.0 mg/kg/injection, schedule: Q01DX001 (oral)): 102 [survivor count not shown] and 110 % of control [survivor count not shown]
T/C (dose: 5.0 mg/kg/injection, schedule: Q01DX009 (ip)): 156 % of control [survivor count not shown]
T/C (dose: 5.0 mg/kg/injection, schedule: Q01DX009 (oral)): 134 [survivor count not shown] and 140 % of control [survivor count not shown]
T/C (dose: 5.0 mg/kg/injection, schedule: Q01DX Z (ip)): 195 % of control [survivor count not shown]
T/C (dose: 8.0 mg/kg/injection, schedule: Q01DX009 (ip)): 160 % of control [survivor count not shown]
T/C (dose: 8.0 mg/kg/injection, schedule: Q01DX015 (ip)): 176 % of control [survivor count not shown]
T/C (dose: 8.0 mg/kg/injection, schedule: Q01DX Z (ip)): 167 [survivor count not shown] and 168 % of control [survivor count not shown]
T/C (dose: 10.0 mg/kg/injection, schedule: Q01DX001 (ip)): 116 [survivor count not shown], 129 [survivor count not shown], 131 % of control [survivor count not shown]
T/C (dose: 10.0 mg/kg/injection, schedule: Q01DX001 (oral)): 107 [survivor count not shown] and 135 % of control [survivor count not shown]
T/C (dose: 10.0 mg/kg/injection, schedule: Q01DX009 (ip)): 174 % of control [survivor count not shown]
T/C (dose: 10.0 mg/kg/injection, schedule: Q01DX009 (oral)): 142 [survivor count not shown] and 148 % of control [survivor count not shown]
T/C (dose: 10.0 mg/kg/injection, schedule: Q01DX Z (ip)): 164 % of control [survivor count not shown]
T/C (dose: 16.0 mg/kg/injection, schedule: Q01DX009 (ip)): 214 % of control [survivor count not shown]
T/C (dose: 16.0 mg/kg/injection, schedule: Q01DX015 (ip)): 126 [survivor count not shown] and 190 % of control [survivor count not shown]
T/C (dose: 16.0 mg/kg/injection, schedule: Q01DX Z (ip)): 209 % of control [survivor count not shown]
T/C (dose: 20.0 mg/kg/injection, schedule: Q01DX001 (ip)): 131 [survivor count not shown], 140 [survivor count not shown], 157 % of control [survivor count not shown]
T/C (dose: 20.0 mg/kg/injection, schedule: Q01DX001 (oral)): 95 [survivor count not shown] and 113 % of control [survivor count not shown]
T/C (dose: 20.0 mg/kg/injection, schedule: Q01DX009 (ip)): 184 % of control [survivor count not shown]
T/C (dose: 20.0 mg/kg/injection, schedule: Q01DX009 (oral)): 120 [survivor count not shown] and 134 % of control [survivor count not shown]
T/C (dose: 32.0 mg/kg/injection, schedule: Q01DX015 (ip)): 186 % of control [survivor count not shown]
T/C (dose: 32.0 mg/kg/injection, schedule: Q01DX Z (ip)): 130 [survivor count not shown] and 205 % of control [survivor count not shown]
T/C (dose: 40.0 mg/kg/injection, schedule: Q01DX001 (ip)): 144 [survivor count not shown], 148 [survivor count not shown], 201 % of control [survivor count not shown]
T/C (dose: 40.0 mg/kg/injection, schedule: Q01DX001 (oral)): 132 [survivor count not shown] and 137 % of control [survivor count not shown]
T/C (dose: 40.0 mg/kg/injection, schedule: Q01DX009 (ip)): 134 % of control [survivor count not shown]
T/C (dose: 40.0 mg/kg/injection, schedule: Q01DX009 (oral)): 89 [survivor count not shown] and 145 % of control [survivor count not shown]
T/C (dose: 54.0 mg/kg/injection, schedule: Q01DX015 (ip)): 116 % of control [survivor count not shown]
T/C (dose: 75.0 mg/kg/injection, schedule: Q01DX001 (ip)): 140 % of control [survivor count not shown]
T/C (dose: 80.0 mg/kg/injection, schedule: Q01DX001 (ip)): 163 % of control [survivor count not shown]
T/C (dose: 80.0 mg/kg/injection, schedule: Q01DX001 (oral)): 128 [survivor count not shown] and 140 % of control [survivor count not shown]
T/C (dose: 300.0 mg/kg/injection, schedule: Q01DX001 (ip)): 142 % of control [survivor count not shown]

OC1(C#CCN(CCCl)CCCl)CCCC1
T/C (dose: 15.0 mg/kg/injection, schedule: Q01DX001 (ip)): 123 % of control [survivor count not shown]
T/C (dose: 30.0 mg/kg/injection, schedule: Q01DX001 (ip)): 123 % of control [survivor count not shown]
